Paper PMC7819943, “Rice protein-binding microarrays: a tool to detect cis-acting elements near promoter regions in rice”
The list shows a part of the results.

biological target: T1, OsSMF1 (Oryza sativa, UniProt Q6ZLB0 1-436); assay: protein-binding microarray (RPBM); PBS, 2% BSA, 51.3 ng/ul salmon testes DNA, 50 uM zinc acetate, 200 nM TF, 25 C, 1 h; high values mean tight binding; settings: protein: recombinant; tags: N-terminal polyhistidine and DsRed monomer fusion (pET32a); chain copies: 2; label: CyDye5-dUTP incorporated in the synthesized complementary strand; 3' TTTTT single-stranded linker to array surface; dsDNA, one strand shown
T1 sequence: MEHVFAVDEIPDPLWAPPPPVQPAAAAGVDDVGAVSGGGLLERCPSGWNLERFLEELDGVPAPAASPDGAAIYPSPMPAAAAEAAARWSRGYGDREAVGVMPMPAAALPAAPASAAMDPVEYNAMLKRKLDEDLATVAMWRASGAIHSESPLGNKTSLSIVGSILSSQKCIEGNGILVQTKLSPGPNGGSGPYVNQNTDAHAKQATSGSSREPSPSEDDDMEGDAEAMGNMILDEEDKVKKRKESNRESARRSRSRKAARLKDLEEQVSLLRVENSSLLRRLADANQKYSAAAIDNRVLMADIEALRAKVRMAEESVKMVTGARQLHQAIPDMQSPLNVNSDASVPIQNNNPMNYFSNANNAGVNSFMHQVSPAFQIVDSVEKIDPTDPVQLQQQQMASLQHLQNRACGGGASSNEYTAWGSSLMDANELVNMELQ
How it was run: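 Polyhistidine-tagged DsRed fusions of transcription factors, joined at the N-terminus, were expressed in E. coli BL21-CodonPlus and isolated on Ni–NTA. They were incubated at 200 nM for 1 h at 25 °C on a custom Agilent array, double-stranded and BSA-blocked, in PBS with 2% BSA, salmon testes DNA and 50 µM zinc acetate. The binding signal is per-feature fluorescence intensity (arbitrary units) read on an Axon 4000B scanner after washing.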

Going from “ATGATCGTGCGGTTGATCCATCGCCGCGCGGTTCACGCGCCGGAGTCACCTAGTGCAG” to “CGCCACTGCCTATTCTATCTATATCGTGTGCACTTGAGGTCGGAGTCACCTAGTGCAG”, the binding signal falls from 3990 fluorescence intensity (a.u.) to 3370 fluorescence intensity (a.u.).

Compared with “ATCGAGAAACGACGTCAGAGTTTCGTCCACGTCACCATGACGGAGTCACCTAGTGCAG”, “TGCCCGGCTGCCCTGCCCCATCCTCGTCAAGCCCTCCTCCCGGAGTCACCTAGTGCAG” is lower in binding signal: 15000 fluorescence intensity (a.u.) for the first, 3860 fluorescence intensity (a.u.) for the second.

Compared with “CGCCCTTAATGTTGCAAATATACACGCTCACGCACGAAGTCGGAGTCACCTAGTGCAG”, “TCTCATGAACTTGGGCCGAGCTTGTGACATGTCCCGTCTTCGGAGTCACCTAGTGCAG” is lower in binding signal: 3730 fluorescence intensity (a.u.) for the first, 3670 fluorescence intensity (a.u.) for the second.

First: TGGGGCCCACATCCCGCACCACTCGGATTCGGATTTCCTCCGGAGTCACCTAGTGCAG
Second: CATACCTTCCGTATTAGTAGAAGGTACTAAAATTGACATTCGGAGTCACCTAGTGCAG
The binding signal of the first is higher: 52200 fluorescence intensity (a.u.) for the first, 13600 fluorescence intensity (a.u.) for the second.

Going from “CGGCCGCCCTCCGTCACGTTCCGCTGCCTCCGCCCCAGAACGGAGTCACCTAGTGCAG” to “AAGATGGGAGAACGGAGGAAGAAGATGGAACTAAAATGTGCGGAGTCACCTAGTGCAG”, the binding signal falls from 4380 fluorescence intensity (a.u.) to 3260 fluorescence intensity (a.u.).

Compared with “ATCTCATCTCATCGACCACACCTGCATCATCAATCTGCCTCGGAGTCACCTAGTGCAG”, “TTTCTCTCCTACGTACACGCACGCGCGGTAACGAGTTAACCGGAGTCACCTAGTGCAG” is higher in binding signal: 3430 fluorescence intensity (a.u.) for the first, 3930 fluorescence intensity (a.u.) for the second.

Going from “CACGCTGACTTAACCGCACGTTAGCCAAAACTGTTCTCAGCGGAGTCACCTAGTGCAG” to “CCCCGCACGCTGCACGCATTCGCAGCGAGCGACGCAGCCACGGAGTCACCTAGTGCAG”, the binding signal falls from 3890 fluorescence intensity (a.u.) to 3140 fluorescence intensity (a.u.).

First: CCCAGATACACCGTTTTCCCTTCCGCGTCACTCCCAGGGCCGGAGTCACCTAGTGCAG
Second: GTAGTAGTACAGCGCACAGGCCACGCGTGCGCGTCCACCGCGGAGTCACCTAGTGCAG
The binding signal of the first is higher: 7160 fluorescence intensity (a.u.) for the first, 4860 fluorescence intensity (a.u.) for the second.

Compared with “CGCATGTACACCTGTTCACATAATGACACGATCAAAATCTCGGAGTCACCTAGTGCAG”, “ATGAAAGGGAATGTGTGGTGGAGGAGGTGGCTGAGAGATTCGGAGTCACCTAGTGCAG” is lower in binding signal: 4080 fluorescence intensity (a.u.) for the first, 3340 fluorescence intensity (a.u.) for the second.

Compared with “ATTAGATTTTCCACAGACACCACAAGCCAATTATACTTAACGGAGTCACCTAGTGCAG”, “GTACTAGTACTATACGTGGATCGAGATGGATAATTAGATTCGGAGTCACCTAGTGCAG” is lower in binding signal: 29500 fluorescence intensity (a.u.) for the first, 3560 fluorescence intensity (a.u.) for the second.

First: GTTATTAGTCTACGTTTAATACTTCAAATGTGTGTCCTTACGGAGTCACCTAGTGCAG
Second: CGGGGATCCGCTCCGCCGTCTCGCCTCCCGCCCCGTGGATCGGAGTCACCTAGTGCAG
The binding signal of the first is lower: 3140 fluorescence intensity (a.u.) for the first, 3300 fluorescence intensity (a.u.) for the second.

With “ACAATTGCTAATTCCACAAGTTTTGCCACATTGGCCTGCTCGGAGTCACCTAGTGCAG” the binding signal was 3370 fluorescence intensity (a.u.).
